Source: patent US20250376709A1, “PAPB AS A BIMOIETY-DEPENDENT THIOETHER INSTALLATION TOOL” (UNIVERSITY OF UTAH RESEARCH FOUNDATION, priority 2022, published 2025)

test: Alkylation of msPapA peptides and variants with iodoacetic acid (free thiol check); conditions: PapB-treated peptide, 10 mM iodoacetic acid

| Substance | carboxymethylation / free thiol after iodoacetic acid treatment |
| --- | --- |
| LKQINVIAGVKEPIRAYGCSAN^DDA (LKQINVIAGVKEPIRAYGCSANDA) [leader-CSAN^DDA] | carboxymethylation is present |
| LKQINVIAGVKEPIRAYGPCSAN^DDA (LKQINVIAGVKEPIRAYGCSANDA) [leader-^DCSAN^DDA] | carboxymethylation is present |
| LKQINVIAGVKEPIRAYG^DCSANDA (LKQINVIAGVKEPIRAYGCSANDA) [leader-^DCSANDA] | no carboxymethylation |
